From patent US11426367B2, “Methods of treating substance abuse” (Perception Neuroscience, Inc., priority 2018, dated 2022)

Conditions: morphine 10 mg/kg SC twice daily, measured 2 h post dose on days 3, 6, 9 and 12; previous in-house studies

CN1CC[C@]23c4c5ccc(O)c4O[C@H]2[C@@H](O)C=C[C@H]3[C@H]1C5 [morphine, Morphine]
morphine plasma levels: -550 ng/mL
